Source: PubChem BioAssay AID1347423 (Functional Genomics Laboratory (NCATS/FGL), 2020)
The whole screen tested about 52,000 sequences, of which about 210 (0.4%) were called active.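 The calls were made as follows: active = gene whose silencing raises cell survival under the drug, median off-target-corrected z-score across its silencing RNAs 2 or more; inactive = the rest.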 Some of the results follow.

Experiment: Resistance to Poly (ADP-Ribose) Polymerase inhibitor: Gene Identification via Genome-wide siRNA Screen
Details: mouse BRCA2 R2336H ES cells, olaparib, CellTiter-Glo viability; active compounds read high
Method in brief: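 Mouse BRCA2 R2336H ES cells were reverse-transfected with siRNA (20 nM final), treated at 48 h with 500 nM olaparib, and read by CellTiter-Glo after 72 h. Scores: MAD-based z per siRNA, median per gene, seed off-target correction.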

| Sequence | z-score |
| --- | --- |
| GGACAGACAGGUCUAGUUATT against Gm1100 | inactive: 0.0667 |
| GGGCUGACUAUUAUUUCAGTT against Cysltr2 | inactive: -0.497 |
| GGCAGGAUAUGUAUUCUGATT against Cecr6 | inactive: -0.0802 |
| GGAUAUCUUCAUAUUGGUGTT against AU018778 | inactive: -0.334 |
| ACUUCCUGACUGAGAGACATT against Olfr485 | inactive: 1.76 |
| GCCGUGGAUGUCAUUUACUTT against AV216087 | inactive: 0.473 |
| GGAGGAUAGAUUUAUGUAUTT against 6030446N20Rik | inactive: -0.62 |
| GGUUAUCCCAGCUACCACATT against 9630013D21Rik | inactive: -1.01 |
| CCUCCUCUAUACAAACAUGTT against Gpr109b | inactive: 0.459 |
| CCUUGCAUUACUUCUAAAUTT against Fmr2 | inactive: 1.01 |
| GGGCUGCUAUUUUGAUGGUTT against Chrd | inactive: -0.566 |
| GGGCAUGUACUAUGAGCCATT against 2310051M13Rik | inactive: -1.44 |
| CGAAUUCUCUACCAGUUUUTT against Psd4 | inactive: 0.497 |
| CCAUGUUAAUCCUGACAGCTT against Phf16 | inactive: 0.772 |
| GGAAGAAAAAAAAUCUCCATT against Frmd3 | inactive: -0.809 |
| AAAAGUUAAUCAUCCGGCATT against Olfr732 | inactive: -0.232 |
| GGUCAUCCUCAAGAUGAAGTT against 4933405K07Rik | inactive: 0.31 |
| GGAGGUGGAUCAUAUGACUTT against BC023296 | inactive: 1.01 |
| GGCACUGAGACUUGAUACATT against A230091H23 | inactive: -1.1 |
| GCUAGAAGCUUUCUAUUCUTT against Hsp105 | inactive: 2.73 |
| GGAUGCAGAUGUACAACUCTT against Slc25a28 | inactive: -0.452 |
| UACCUUGGGUUCUAAGGCATT against BC023754 | inactive: 1.09 |
| GCUUGUGUCACCUACGGAATT against 1700007D05Rik | inactive: 0.142 |

| Sequence | z-score |
| --- | --- |
| GGAUUUCAAAACCGACUUGTT against H3f3b | inactive: -1.46 |
| CCUCGUAAGACUGUAAAAGTT against Neurog2 | inactive: -0.0869 |
| GCAGAUCACCUUUUGUUUATT against Gdap2 | inactive: -0.803 |
| CCCUCUCCUCAGAUAUACUTT against Grasp | inactive: 0.375 |
| GGAGCAAGACAACAAAGAUTT against Cd97 | inactive: -0.294 |
| CCCAAUUUUUAGUUGCUAATT against Rab2b | inactive: -0.321 |
| GGAAGUGAAAGGUAAAUAGTT against Dia1 | inactive: 0.317 |
| GCCGUGUUUACAGAAUGUUTT against Nkx2-2 | inactive: -0.536 |
| GGGAUUCUACUGUGUGUGATT against Gpr82 | inactive: -0.452 |
| CGAUUUCCCAAGUUAUUACTT against Nxf1 | inactive: -2.99 |
| GGACCAACUACACACUACGTT against Grik5 | inactive: 1.13 |
| GGGAUGAACUCAACUGGAATT against Lrpap1 | inactive: 0.843 |
| GGCAAGGCUAACUGACCUGTT against Cxcl2 | inactive: 0.494 |
| GGAUAAGAGUGAUGAAGCCTT against Dgcr2 | inactive: 0.133 |
| CCUUGACUUUAAUUUGAAGTT against Bpil2 | inactive: -0.0935 |
| GGAACAAAUGCCACUAACCTT against Pde5a | inactive: 1.42 |
| GGACACAGAUUUCACUAUATT against Arfrp1 | inactive: -0.5 |
| GAUUUUCUGUGUCCAUCAATT against Olfr726 | inactive: -0.601 |
| GCAACAAAUGGACUUUCCATT against Stard13 | inactive: -1.37 |
| GGCAAAAAAAACUGCUAUATT against Gpr128 | active: 0.0555 |
| GGUAAAGUCAAAAUCACCATT against D14Ertd581e | inactive: 1.58 |
| GGCAAAGCAGGGAUCUAGATT against Noxo1 | inactive: -0.235 |
| GCACAACAUACCCUGUGGUTT against Syn1 | inactive: -0.053 |

Two records drawn at random from the list so far:

| Sequence | z-score |
| --- | --- |
| CCCUCUCCUCAGAUAUACUTT against Grasp | inactive: 0.375 |
| GGGCUGACUAUUAUUUCAGTT against Cysltr2 | inactive: -0.497 |

More records follow:

| Sequence | z-score |
| --- | --- |
| GGCUGCUUUAAAGAGAUUCTT against Olfr1045 | inactive: 0.919 |
| CCAAAGUCAUAAUUCCAACTT against Timm23 | inactive: -1.95 |
| CCUCAAAGGCCCUACCAAUTT against Tle6 | inactive: -2.35 |
| GGCUUGUGAAUGGAAAUAATT against Hspca | inactive: -0.904 |
| GGUGAAAGAGAAGACUGAATT against Scye1 | inactive: -2.55 |
| GGAGGUUCAGCAACGCAUUTT against Tessp3 | inactive: 0.0178 |
| GCAUCAUGAACUCCUUUGUTT against Hist1h2ba | inactive: -0.703 |
| CCUACGUGUUUAAGAUGAATT against Alk | inactive: -0.439 |
| GGUUUUUAACUGGAAAACUTT against 4632422M10Rik | inactive: -0.064 |
| GGGACAAAGAAAAUCUACUTT against Ehf | inactive: -1.63 |
| GAAAAAUGUGGAAGAGAUUTT against Olfr1219 | inactive: -0.27 |
| GGCCAUUUGGAAACUAUUATT against Anapc11 | inactive: -0.5 |
| GGACAAAAGGCAAUCUACATT against 2810422O20Rik | inactive: -0.171 |
| GGGAAAAAUGUCUCAAACATT against 1200006O19Rik | inactive: 0.498 |
| GGAAUGAGAAGAGAGGAUCTT against Rpp25 | inactive: 0.0843 |
| GGGAUCAAAGGAAAUUACATT against Vnn1 | inactive: -1.46 |
| GGUCUCCACCUCCAUAUCCTT against Slc15a3 | inactive: 0.715 |
| GGACAGCACUAACACAUCCTT against Slamf9 | inactive: -0.438 |
| GGGAUCUAAGGAACAGAGATT against Fgf8 | inactive: 0.00428 |
| GGGUUAGGUUGGGAUGGAUTT against Ccnd3 | inactive: -0.69 |
| GGUGUACCUACAGUUAUGGTT against Mir | inactive: -0.917 |
